For this test, the target named is 3x Flag-tagged Hos2 (S. pombe). In words: affinity purification with mass spectrometry; native complex of 3xFlag-Hos2 from S. pombe lysate on anti-Flag M2 beads (binding buffer 150 mM NaCl, 0.5% Triton X-100, 4°C; washes with 300 mM NaCl), eluted with Flag peptide, gel filtration on Superose 6 Increase, fractions analysed by silver-stained SDS-PAGE and mass spectrometry.

Results are given in words; binding and its absence hold for the method and conditions named. Binding seen in cells or lysates may run through a third protein. A yes stands for co-enrichment or nearness to the bait. Other partners may have been found.

B1: Set3 (protein, UniProt Q10362 1-859)
chain: MWKIRCVCPFEDDDGFTIQCESCEVWQHAVCVNIDANNVPEKYFCEQCQPRPIDADKAHKIQLARLQREEEQSRILSRSRSSNNKRRTSFGKNGASPTHSASPRQGNNTGANGALFSQSTNSSNSGSYRNSVTGATLPNAHAPHSQNRRRRSNHLNNPPEAPITEASNEYVYSFHLEYVPLESNTFSASALEYSKNLDLKNLDESEVLMDGCQVVPISSSKFCCSRFGLVSTCEIPPNTPIMEVKGRVCTQNEYKSDPKNQYNILGAPKPHVFFDSNSQLVVDSRVAGSKARFARKGCQSNSVVSSVYMNGSNSVPRFILYSTTHIAPETEIIGDWTLDISHPFRQFAPGMSRPSFNMEELELLSEVLSTFLSFNECASQDKKNCVFSRVTKYIKAARRASTANRVSVAKDRLSLTPSSTPSTPSPAESLPQPSNPTSVYAKSLKEFWLDKYRLSILQKWPAVKSLPTESVGIDVVMEPKLQPSVKEKKPTKDLQSPLPSVEEDSSNRDKKTDIADLHTDSKVGIADVLSPISPDAALQSDGPLKKAKEPEESSITPTTPPSFNVGESLSRRSASPLQHPRTSPDMLDKTSPCKRGLGTITTVHKKHGSVDHLPSVKRRRSIANDFHGKPDYNKRSLSIERKPEAFKTKGDRPHKVHPSFHRNSDSKLKLEPSSKEKSGSMFFNTLRTVKDKSHVHDTQRSSDVNFSRQNGTRSHSPSVSPVGFSFDKSPVTTPPLPTAPAPVITSRHALVNNQFPTNNPNILDHKANNGDDISNALNTSRSENKPNSNLVQGSVVKPSNTSASALPTSAPKKLSLSEYRQRRQQNILHQQSKDNQAHGDTARPHTVPAATVSNPSFTR
Consider B1, for which the binding entry is reported as “binds”.

B2: Hif2 (protein, UniProt O74845 1-564)
chain: MDTNQVNYIIWRYLKECGYSHTKFAFERETGIQNLDKQWGSTCQVGALVEILQKGLQYVELEKHYVDNHSSNEEASKTSIDGESLVNENPCKLPFYLTVPHICETTLTKADSTNGFCEHNNSNDHQLKILQDKGSGSPSSPVMPFKDKIEKRDIDITMADESNVEKDPARPIAVYNSSPVTEITEIKQVTFTGGEDIKSDFFKVIPTKHPVTCADWRPLLQENYHVYEFSIGMTNATLASVSICEEQNDFKAKTDYCLQSSFDNQDITGVAWNNSGSFLAYAFFSGVIEIYDSHGSQILSFHNNKGPVLSLKWSGTDTYLAAGSADGTITLFDQLKQTQYSIDTLASSVLDIEWISFDEFVTSDVEGSLRVYKVDGKAPVSTVSHAHDNSIVALRYNLRISLLLTASSDTTVKLWSRGDAGAFECLHVFSFSSPVNCIDWNLREGTPILAVASNSIVSMYNAISLQQLAVFMRHTAPVSALSFSHNGRYLATGDTSGGVCIWSCKTAKLFKELGSDNSELIAVTNVLPEEQVNFLRWSFDDKDLLIGKQKKEIICCCDFLHDSL
In the case of B2, the binding result is “binds”.

These data come from publication PMC8441049.
